# The supplement of paper PMC12889115
# This is one part of the list. These are raw signals, not scaled to a control.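 In the initial screen, polymyxin B was used at a concentration that permeabilizes Salmonella's outer membrane but not its inner membrane. Maximum growth was set by DMSO wells with or without polymyxin B. Since plates varied, data were ranked per plate, and compounds giving the lowest OD600 advanced as hits.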
# Tested on: Salmonella enterica serovar Typhimurium SL1344
# Assay: bacterial growth OD600 after 18 h with compound and polymyxin B; higher = more bacterial growth (less inhibition)
# Settings: 50 µM, Mueller-Hinton broth
smiles,measurement,setting,value
Cc1ccc(CN2CCC(CN(C)Cc3ccc(F)cc3F)CC2)o1,bacterial growth OD600,polymyxin B 1 µg/mL,0.771
CCOC(=O)C1(Cc2cccc(OC)c2)CCCN(CCCn2cccn2)C1 (stereo unspecified),bacterial growth OD600,polymyxin B 1 µg/mL,0.97
O=C(Nc1cccc(-c2cccc(Cl)c2)c1)C1CCN(Cc2ccncc2)CC1,bacterial growth OD600,polymyxin B 1 µg/mL,0.009
Cc1ccc(OCCN(C)C(=O)C2CC23CCN(Cc2nc4ccccc4s2)CC3)cc1 (stereo unspecified),bacterial growth OD600,polymyxin B 0.75 µg/mL,0.014
CCOC(=O)C1(Cc2cccc(F)c2)CCN(C(=O)C2CCC2)CC1,bacterial growth OD600,polymyxin B 1 µg/mL,0.62
CCOc1ccc(CN2CCC(Oc3ccccc3C(=O)N3CCCC3)CC2)cc1,bacterial growth OD600,polymyxin B 1 µg/mL,1.28
CC1CN(Cc2ccc(OC(F)F)cc2)Cc2ccccc2O1 (stereo unspecified),bacterial growth OD600,polymyxin B 0.75 µg/mL,0.72
COc1cccc(-c2ccc(NC(=O)C3CCCN(C(=O)C4CCCC4)C3)cc2)c1 (stereo unspecified),bacterial growth OD600,polymyxin B 1 µg/mL,0.012
O=C(CCC(F)(F)F)NC1CC(=O)N(CCc2cccc(Cl)c2)C1 (stereo unspecified),bacterial growth OD600,polymyxin B 1 µg/mL,0.976
CCOC(=O)C1(Cc2ccccc2F)CCCN(CCCC(F)(F)F)C1 (stereo unspecified),bacterial growth OD600,polymyxin B 0.75 µg/mL,0.726
O=C(NC1CC(=O)N(Cc2ccccc2C(F)(F)F)C1)c1cscn1 (stereo unspecified),bacterial growth OD600,polymyxin B 1 µg/mL,0.953
CN(Cc1ccnc2ccccc12)C(=O)c1cn(Cc2ccccc2F)nn1,bacterial growth OD600,polymyxin B 1 µg/mL,0.811
CC1CN(CCC(=O)NCC(C)(C)N2CCOCC2)Cc2cc(Cl)ccc2O1 (stereo unspecified),bacterial growth OD600,polymyxin B 0.75 µg/mL,0.768
O=C(NC1CCCC1)c1ccc(N2CCC(NCc3cnn(-c4cccc(F)c4)c3)CC2)cc1,bacterial growth OD600,polymyxin B 0.75 µg/mL,0.775
COC(=O)C1CCN(C(=O)CC2(c3ccccc3)CC(=O)N(CCCOc3cccnc3)C2=O)CC1 (stereo unspecified),bacterial growth OD600,polymyxin B 0.75 µg/mL,0.779
CCOc1ccc2nc(N3CCCN(Cc4ccc(Sc5nncn5C)o4)CC3)nc(C)c2c1,bacterial growth OD600,polymyxin B 0.75 µg/mL,0.749
CCNC(=O)CC(c1ccccc1)c1ccc(OC)cc1 (stereo unspecified),bacterial growth OD600,polymyxin B 1 µg/mL,0.789
Cc1cccc(SC2CCN(Cc3nc(-c4ccc5c(c4)OCO5)no3)CC2)c1,bacterial growth OD600,polymyxin B 1 µg/mL,0.879
CCOC(=O)C1(Cc2ccccc2F)CCCN(C(=O)c2nccc3ccccc23)C1 (stereo unspecified),bacterial growth OD600,polymyxin B 1 µg/mL,0.014
CCOc1ccccc1CN1CCN(Cc2cnc(C)s2)CC1CCO (stereo unspecified),bacterial growth OD600,polymyxin B 1 µg/mL,1.13
Cc1cnc(CNC(=O)CCN2Cc3ccccc3OC(c3ccccc3F)C2)cn1 (stereo unspecified),bacterial growth OD600,polymyxin B 0.75 µg/mL,0.775
CCOC(=O)C1CCCN(C2CCN(C(=O)CN3Cc4ccc(OC)cc4OC(C)C3)CC2)C1 (stereo unspecified),bacterial growth OD600,polymyxin B 0.75 µg/mL,0.859
COCCN1CCCC2(CCN(C(=O)c3ccc(Cl)c(F)c3)C2)C1=O (stereo unspecified),bacterial growth OD600,polymyxin B 1 µg/mL,0.917
CSCC(=O)N1CCc2[nH]nc(-c3cccc(F)c3)c2C1,bacterial growth OD600,polymyxin B 0.75 µg/mL,0.626
CCCN1CCCN(c2ccc(-c3nc(Cc4ccccc4)no3)cn2)CC1,bacterial growth OD600,polymyxin B 0.75 µg/mL,0.657
O=C(CN1Cc2ccccc2OC(c2ccccc2F)C1)NCCCN1CCOCC1 (stereo unspecified),bacterial growth OD600,polymyxin B 0.75 µg/mL,0.777
COc1cc(=O)n2c(c1C(=O)NC(C)c1ccco1)CCN(Cc1nc3ccccc3n1C)CC2 (stereo unspecified),bacterial growth OD600,polymyxin B 0.75 µg/mL,0.838
C=CCCC(=O)NC1CCCN(C2CCN(C)CC2)C1 (stereo unspecified),bacterial growth OD600,polymyxin B 1 µg/mL,1.1
COc1ccccc1CN1CC(C(=O)NCc2cc(F)ccc2C)CCC1=O (stereo unspecified),bacterial growth OD600,polymyxin B 1 µg/mL,0.741
CCC(NC(=O)c1ccccc1OC1CCN(S(C)(=O)=O)CC1)c1ccc(F)cc1 (stereo unspecified),bacterial growth OD600,polymyxin B 1 µg/mL,0.841
O=C([C@@H]1C[C@@H]2C=C[C@H]1C2)N1CCC(C2(c3ccccn3)NC(=O)N(CCc3cccs3)C2=O)CC1 (stereo partly specified),bacterial growth OD600,polymyxin B 0.75 µg/mL,0.906

# Rewritten as tab-separated lines: entries from further up
smiles	measurement	setting	value
CC1CN(CCC(=O)NCC(C)(C)N2CCOCC2)Cc2cc(Cl)ccc2O1 (stereo unspecified)	bacterial growth OD600	polymyxin B 0.75 µg/mL	0.768
O=C(NC1CCCC1)c1ccc(N2CCC(NCc3cnn(-c4cccc(F)c4)c3)CC2)cc1	bacterial growth OD600	polymyxin B 0.75 µg/mL	0.775
